Assay: Nitrogen oxide SCR conversion activity of catalyst bodies versus temperature

Compound: O=S(=O)([O-])[O-].O=S(=O)([O-])[O-].[Fe+2].[NH4+].[NH4+] [ferrous ammonium sulfate, reference compound]
- NOx conversion greater than iron nitrate (Example 1, FIG. 1, ZSM-5, at any temperature, about 175 to about 650° C.): 10-20%
- NOx conversion at 625° C. (Example 2, FIG. 2, iron precursor on β zeolite, about 4% iron, wash coat on cordierite honeycomb): about 30%
- light-off at 70% conversion, faster than ferrous gluconate (Example 2, FIG. 2, β zeolite): about 25 °C

Source: patent US20080287283A1, “Catalyst body and methods” (priority 2007, published 2008)
